# Experimental data reported in PubChem BioAssay AID445 (National Center for Advancing Translational Sciences (NCATS), 2006).
# The list shows a part of the results. The main result of the screen is listed elsewhere. These columns were measured beside it and carry no call. Most of these compounds were active or inconclusive in the main read-out, so they are no random draw. Potencies come from curve fits of mixed quality, noted in brackets.
# Experiment: IkB Signaling
# Conditions: ABC-DLBCL IkBa-CBG/CBR dual luciferase ratio (green luciferase fused to IkBa over red control in OCI-Ly3 lymphoma cells), 4 h
# Method in brief: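 In this assay, an IκBα–CBG68 fusion accumulates when IKK-driven degradation is blocked; native CBR normalizes for cell number. OCI-Ly3 cells were treated 4 h with compound and doxycycline, then green and red light read after Chroma-Glo addition.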
# [1] = measured here: control luc red channel unless noted
# [2] = measured here: IkB-luc green channel
# [3] = measured here: control luc red channel
structure (smiles),measurement,setting,value
CCOc1ccc(-n2c(C)nc3cc(C(=O)NCc4ccc(C)cc4)ccc32)cc1,AC50,[1],"39.8 µM [falling, partial curve]"
COC(=O)Nc1nc2ccc(C(=O)c3ccccc3)cc2[nH]1,AC50,[2],"1.26 µM [rising, full curve]"
same,AC50,[3],"1.58 µM [rising, full curve]"
CCn1c(=O)cc(SCC(=O)Nc2cc(Cl)ccc2OC)c2ccccc21,AC50,[1],"20 µM [falling, partial curve]"
Cc1ccc(C(=O)Nc2nnc(S(=O)(=O)N(C)Cc3ccc(F)cc3)s2)cc1,AC50,[1],"3.16 µM [falling, single point]"
CCOc1ccc(-c2nnc(SCC(=O)Oc3ccccc3)o2)cc1,AC50,[1],"7.94 µM [falling, full curve]"
O=C(CCCCCN1C(=O)c2ccccc2C1=O)Nc1ccc(S(=O)(=O)N2CCCCC2)cc1,AC50,[1],"15.8 µM [falling, partial curve]"
CSc1ccc(NC(=O)NCCCN2CCN(c3ccccc3F)CC2)cc1,AC50,[1],"10 µM [falling, partial curve]"
CC1CCCN(c2nc(-c3ccccc3O)nc3ccccc23)C1 (stereo not drawn),AC50,[1],"31.6 µM [falling, partial curve, poor fit]"
O=c1c2c3c(sc2nnn1Cc1ccc(F)cc1)CCCC3,AC50,[1],"0.00631 µM [rising, full curve, poor fit]"
CCc1cccc(NC(=O)CSc2n[nH]c(-c3ccccc3Cl)n2)c1,AC50,[1],"39.8 µM [falling, partial curve]"
O=C(Nc1ccc2nc(SCCOc3ccccc3Cl)sc2c1)c1ccco1,AC50,[1],"25.1 µM [falling, single point]"
Cc1nnc(N2CCN(c3cccc(Cl)c3)CC2)c2c1nnn2Cc1ccc(F)cc1,AC50,[1],"12.6 µM [falling, partial curve]"
COc1cccc(-c2nn(C)c3sc(C(=O)NCCc4cccc(C)c4)cc23)c1,AC50,[1],"2 µM [falling, full curve]"
N=C(N)SCCc1ccc(OCc2ccc([N+](=O)[O-])cc2)cc1,AC50,[1],"31.6 µM [falling, partial curve]"
CCOc1ccc(OCC)c(NC(=O)c2cnn(-c3ccc(F)cc3)c2C2CCN(C(=O)OC(C)(C)C)CC2)c1,AC50,[1],"10 µM [falling, partial curve]"
CCC(=O)N1CCCc2cc(S(=O)(=O)N3CCN(c4ccccc4F)CC3)ccc21,AC50,[1],"12.6 µM [falling, partial curve]"
COc1cc(N2C(=O)CSC23C(=O)N(Cc2cccc(F)c2)c2ccccc23)cc(OC)c1OC (stereo not drawn),AC50,[1],"15.8 µM [falling, partial curve]"
CCOC(=O)Cn1c(=O)n(CC2CCCO2)c2nc(-c3ccc(OCC)cc3)nc(C(N)=O)c21 (stereo not drawn),AC50,[1],"0.398 µM [falling, full curve]"
COc1ccccc1Nc1c2c(nc3ccc(NC(=O)c4ccc(OC)c(OC)c4)cc13)CCCC2,AC50,[1],"31.6 µM [falling, partial curve]"
Cc1ccc(-n2ncc(C(=O)NCc3ccccc3)c2C2CCN(C(=O)OC(C)(C)C)CC2)cc1,AC50,[1],"20 µM [falling, partial curve]"
CCOC(=O)c1cc(-c2ccc(OC)c(S(=O)(=O)NC3CCCCC3)c2)on1,AC50,[1],"31.6 µM [falling, single point]"
Cn1c(=O)[nH]c(=O)c2c1nc(Sc1nc3ccccc3s1)n2Cc1ccccc1,AC50,[1],"39.8 µM [falling, single point]"
COc1ccc(CCNC(=O)CN2C(=O)COc3ccc(C)cc32)cc1OC,AC50,[1],"20 µM [falling, single point]"
COCCCNC(=O)c1c(-c2ccccc2)c(-c2ccccc2)nn(C)c1=O,AC50,[1],"0.398 µM [rising, full curve]"
Cc1cccc(Nc2nn3c(=O)c4cc5c(cc4nc3s2)OCO5)c1,AC50,[2],"39.8 µM [rising, single point]"
same,AC50,[3],"39.8 µM [rising, single point]"
Cc1ccc(C(=O)NCc2ccc3c(c2)CCN3C(=O)c2ccc(C)cc2)cc1,AC50,[1],"15.8 µM [falling, partial curve, poor fit]"
COc1nc(Nc2nc3ccccc3c(=O)[nH]2)nc2ccc(C)cc12,AC50,[1],"0.0794 µM [falling, full curve]"
COc1ccccc1N1CCN(C(c2ccc(Cl)cc2)c2nnc(-c3cccc(F)c3)o2)CC1 (stereo not drawn),AC50,[1],"20 µM [falling, partial curve]"
O=C(Nc1ccc(Cl)c(-c2nc3ccccc3o2)c1)c1ccc(-c2cccc([N+](=O)[O-])c2)o1,AC50,[1],"2.51 µM [falling, single point]"
CCCSc1oc(-c2ccco2)nc1S(=O)(=O)c1ccc(Cl)cc1,AC50,[1],"20 µM [falling, partial curve]"
COc1ccc(CC(=O)Nc2sc3c(c2C(=O)Nc2cccc(C)c2)CCCCC3)cc1,AC50,[1],"31.6 µM [falling, single point]"

# 2 entries drawn at random from the list so far:
structure (smiles),measurement,setting,value
COC(=O)Nc1nc2ccc(C(=O)c3ccccc3)cc2[nH]1,AC50,[3],"1.58 µM [rising, full curve]"
CC1CCCN(c2nc(-c3ccccc3O)nc3ccccc23)C1 (stereo not drawn),AC50,[1],"31.6 µM [falling, partial curve, poor fit]"
